Reference: patent US11229675B2, “Therapeutic peptides for excitatory neurotoxicity-related injuries” (Biocells (Beijing) Biotech Co., Ltd., priority 2016, dated 2022)
Entries after “also recorded” stand apart in the source; their conditions may differ.

Amino acid sequences for entries named in this document (tags omitted). Residues count along the entry.
UniProt P78352, 61-249: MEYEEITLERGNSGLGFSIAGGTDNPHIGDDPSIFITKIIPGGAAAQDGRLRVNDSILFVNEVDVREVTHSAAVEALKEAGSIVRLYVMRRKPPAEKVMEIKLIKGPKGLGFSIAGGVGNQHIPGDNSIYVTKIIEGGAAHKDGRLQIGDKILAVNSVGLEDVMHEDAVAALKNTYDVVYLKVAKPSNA

Molecular target: PDZ1/2 domain (Homo sapiens, UniProt P78352)
Settings: His beads + PDZ1/2 + peptide
Experimental: The mixture was centrifuged at 5000 g for 1 minute at 4° C., and the supernatant was discarded. 1 mg of PDZ1/2 protein was added to the mixture, and a buffer was added to reach the volume of 1 ml. The mixture was spun for binding for 1 hour at 4° C. The mixture was centrifuged at 5000 g for 1 minute at 4° C., and the supernatant was discarded. […] The mixture was spun for binding for 2 hours at 4° C. The mixture was centrifuged at 5000 g for 1 minute at 4° C., and the supernatant was discarded. […] 20 μl of MCAC-300 was added after washing.

In the case of `CC[C@H](C)[C@H](NC(=O)[C@H](CCC(=O)O)NC(=O)[C@@H](NC(=O)[C@H](CC(=O)O)NC(=O)[C@H](CC(C)C)NC(=O)[C@H](CC(C)C)NC(=O)[C@H](CCCCN)NC(=O)[C@H](CCC(=O)O)NC(=O)[C@H](Cc1ccc(O)cc1)NC(=O)[C@H](CCCNC(=N)N)NC(=O)[C@H](CCCNC(=N)N)NC(=O)[C@H](CCCNC(=N)N)NC(=O)[C@H](CCC(N)=O)NC(=O)[C@H](CCCNC(=N)N)NC(=O)[C@H](CCCNC(=N)N)NC(=O)[C@H](CCCCN)NC(=O)[C@H](CCCCN)NC(=O)[C@H](CCCNC(=N)N)NC(=O)CNC(=O)[C@@H](N)Cc1ccc(O)cc1)[C@@H](C)O)C(=O)O` [P5], the “binding to PDZ1/2 domain (pull-down, SDS-PAGE of eluate)” value is reported as “can bind to the PDZ1/2 domain; also recorded: capable of binding to PDZ1/2 domain”.
